Assay results: article PMC7968666, “The pharmacokinetics and drug-drug interactions of ivermectin in Aedes aegypti mosquitoes” (PLoS Pathogens, 2021)
Several values for one entry are separate records, joined by “and”; a condition that tells them apart may be missing. Equal values may be shown once. The source gives many values for each of these; only a part stands here.

Experiment: Pharmacokinetic and drug-drug interaction studies in blood-fed mosquitoes (concentration-time courses, population PK modelling)
Settings: IVM (0.1 µg/ml) in human blood, Batch 4, individual mosquitoes, listed as IVM

Compound: CCC(C)C1OC2(CCC1C)CC1CC(CC=C(C)C(OC3CC(OC)C(OC4CC(OC)C(O)C(C)O4)C(C)O3)C(C)C=CC=C3COC4C(O)C(C)=CC(C(=O)O1)C34O)O2 (centres unmarked) [ivermectin]
- Ivermectin concentration in single mosquito (48 h post feeding): 0.003 ng/mg msq (4×) and 0.059 ng/mg msq and 0.062 ng/mg msq and 0.024 ng/mg msq and 0.018 ng/mg msq (2×) and 0.012 ng/mg msq and 0.026 ng/mg msq and 0.035 ng/mg msq and 0.057 ng/mg msq and 0.009 ng/mg msq and 0.022 ng/mg msq and 0.032 ng/mg msq and 0.039 ng/mg msq and 0.002 ng/mg msq and 0.054 ng/mg msq and 0.045 ng/mg msq
- Ivermectin concentration in single mosquito (72 h post feeding): 0.007 ng/mg msq (2×) and 0.005 ng/mg msq (4×) and 0.009 ng/mg msq and 0.006 ng/mg msq (2×) and 0.003 ng/mg msq (7×) and 0.002 ng/mg msq (3×) and 0.004 ng/mg msq
